This is one part of the list. At the low end of the ranking the order means little.
The sequences below were run on c-MYC + MAX + histone octamer (assay: Pioneer-seq (competitive nucleosome EMSA with sequencing)). Conditions: 10 mM Tris-Cl pH 7.5, 50 mM NaCl, 1 mM DTT, 0.25 mg/ml BSA, 2 mM MgCl2, 0.025% Nonidet P-40, 5% glycerol; 28 nM nucleosome library; 10 min on ice then 30 min …; high values mean tight binding; double strand, one strand shown.
“GATGGACCCTATACGCGGCTTTTAAAAATCAATGGCTGATAATACTGTTATCTGTGGTTATACAGCTGATACCAGCATTAAGGACCAAGGTGTCTGTACTAGTGTTTGTATTGCAGGAGGTGGAGAGCGAACAATACCATGAAAAGCAACAAGTTCCTGTGTGCTGCTATATTTGGATAAGAGAGGAAGAATGAGATGGAGGGACTTGTTTGCCAGTCGGATAGTGTTCC” gave a binding signal (log2 relative supershift) of -0.112.
For “GATGGACCCTATACGCGGCTGGTTCTCTCACCCCAGACACACCAGGGCTGATCCAACATATCTGGCTCAACATCACCCACAAGTCTCAACAGGGCCCTGAAAACCACCTCTGACTCCACAACCCACTGTCCCACGCCCTGGGAGGTAGGCTGTGTCTGGGCTTGCTCACGTCTGGGAACAGCAAAGTCTGGCCCAAGCCTGTTCAGCCTGTGCCAGTCGGATAGTGTTCC”, the binding signal (log2 relative supershift) was -0.103.
For “GATGGACCCTATACGCGGCCGTGCCTGGAGCTTGGAATTCAGGCCAGAAACCACCAGTGGACACCAGCATTCCACACTCACTGCACAGGCTGGGGCTCAAACCAAGGCCCAGGGACAGGAAGGGACAAGCCCCAGCCCCAGCCGGACTCCCAGCCCACACAAACCATCAGGGCTTGTTTCCTGCTCCATGGAAGCCTCAGACATGTTTCATGCCAGTCGGATAGTGTTCC”, the binding signal (log2 relative supershift) was -0.181.
“GATGGACCCTATACGCGGCGCAAAGCTCCAGTACCCTCAGGCCACACCTACTGGAAAAATATATGTCAGCCCCAGAAAATTGTGGGCAAGATGAGGCAAGTCCTGAGCAACACAGGAAACTGCCCTCCTCCTTTTCTGGCCCCGCTTCCACTGTGATGCTAAAGATCGCATCAAGGCTGGTCATCCAATCAGCAGGATGTAAGAGGGTCATGCCAGTCGGATAGTGTTCC” gave a binding signal (log2 relative supershift) of -0.00118.
“GATGGACCCTATACGCGGCAGAGAGCCCAAGACTAGAAATGCCCATATCTTCCCATGGAAAGTGTTCCTCTGATAGGCGGGAGACAGAGGACCAAATTGCAAGTTACAACCTGCAGCCTGGGAGTTTCAGGGGCTTCAACACCAAATGAAATTGGAGAACTATCAACAGGATTCAGGGTTCAGCACAGGCTCCAGCAAGACAGAGAGAAATGCCAGTCGGATAGTGTTCC” showed a binding signal (log2 relative supershift) of -0.406.
“GATGGACCCTATACGCGGCTGTGTTTTAAAAAAGAAGTATTTCTTGCAAACACTTATGACTTGTCTATGTCTTCTACAAGTCTGGACATGTCTTGGAACATTATCTGTGTTCTGTGGGTTACAAGGCTTGTCGAGGTCAAAGTACTCAGACATGAGACAGGCACCTTGTATACTCCAGAGAGCTAGAAATACTTGGAGATTAAGTCTAGTTGCCAGTCGGATAGTGTTCC” showed a binding signal (log2 relative supershift) of -0.199.
“GATGGACCCTATACGCGGCTGGGGCTCAGTGTTCTGGGAGAAGTGGGTTCTAGCTCTGCCGCTGGGCCCTGGGTGTGGGCGCCCAATCGTCCGGGAAGCGCCCACAAGCCCAGGCAAGTCCCGACAGCGGTAGCCCGAGCCCAAGCGCTGCGGGCCCGGCGTCCCAGTGACCCCAGTTCCGGGTCCGAGGCACCGCCGGCGGCATCTCCCTGCCAGTCGGATAGTGTTCC” gave a binding signal (log2 relative supershift) of -0.0292.
For “GATGGACCCTATACGCGGCGGGTCCCCAGAGAATCTCCAGGCACACAAGTGTCTACCACAGATAAAACATCTGGTGCAGATAAGGGAACCTGCACAGGGGCTTGCCTGGACATGCCAGCAGCAGACTGGAGGCCCACATGCACTGGGGAGCTGGGGTGGAGCCACCAAGAATTCATGCCTTATGCAGAGGAGGAGCCTGGCCTCTTCAGCTGCCAGTCGGATAGTGTTCC”, the binding signal (log2 relative supershift) was -0.218.
For “GATGGACCCTATACGCGGCTTCTCTTTCTCCCTGCCTCCACCAGCCCAGACCCCACCCCACCTCCTGTAAACCAGGGGCAGCAGGGGAGGGACGCTTTGCAGAGCAGTGCAAGTACAGACAAGTGCGTCGCTGAATCTGTGATCAGTGCTGGGGGCCCCTCAGGGCTGCCTGTACCTGGGTGGGGTGGGACATCACCAGCCCATAGCCCATGCCAGTCGGATAGTGTTCC”, the binding signal (log2 relative supershift) was -0.0361.
For “GATGGACCCTATACGCGGCGAGGAAGAGTCCCAGGGTGATGAGGGTGAGGGTGTGTTCCCTCCCACAATTAATGCCATCACAGTGAGATCTGCCTAATAATAGGATCTCCAGACCCCAGCAAATTGTCTGCTGATCTCAGGCAATGTTTGTCTGTAAGAATCCTTCGCCCTGTGTAAACATTTTATTAGACCATTAAGTTGCCGTCAGCCTGCCAGTCGGATAGTGTTCC”, the binding signal (log2 relative supershift) was -0.0649.
“GATGGACCCTATACGCGGCCACTATTTCACGACCTTGCACATAGTTCATTTGTTTCATACATCACACACTGTTGTGTTACGTATTGACATGGCTGTCTTCACAACTAGGCTCTGAGCACCTTAAAGGCTGGGACTGACGCCAGTCACAATCTAATGCAAAGGACAGTGCTGTTATGGAAATGTTTATTGAACTGAACTGAAAATCCTGCCTGCCAGTCGGATAGTGTTCC” gave a binding signal (log2 relative supershift) of -0.172.
“GATGGACCCTATACGCGGCACACAAACTCTTTCCCCCTTGTCCGTTTGCAGGCTCTCTCATCTGGCACCTATAGTGACACCTGCTCCTTTGAGTGGCCCCTTGCCCAGGACACAGCTGTGTTCCTTCATGGCATCATTTGTGTGCTGGCTCAGGCCAGCCTATGGTCCCTGCTCCCCAAGCCTCTCACTGAAGAGAAAGGCACTGAAAGGTGCCAGTCGGATAGTGTTCC” gave a binding signal (log2 relative supershift) of -0.104.
“GATGGACCCTATACGCGGCGATAATTTGGATTTAGGGTAAGGGACAGCGTTGCTCATCTACAGGACCACAAGGGGTTCTGTGCTGCAGGGGCATAAGAAGGAGCATGTGCCATGTGGGGAATGCAGGGAAGCAGGGCAGAGGGACGTAGGAGAGGAAGATTAAGAGCCAAGGGGGAGGGGCAGGCAGGCAGGTCCTTTTCCATCTTTTCATGCCAGTCGGATAGTGTTCC” gave a binding signal (log2 relative supershift) of -0.601.
“GATGGACCCTATACGCGGCCAATAAGGGTGGTCTGGTGCCTTGCTCCAAAAGGCCTTATCAGTAGACCTGAGACGATGGGCTGGGTTGTCTTCATTAACCTCTGAAAGCATGCCTGGGGAAGAAGGGACCAGCCTGGGCTCCGAAGGCCTCCTCAGAACAAGACCCTGCTTGTCCAAGTGCCTCACTCCCGGGTGGCTTGATTTCCAGGATGCCAGTCGGATAGTGTTCC” gave a binding signal (log2 relative supershift) of -0.155.
“GATGGACCCTATACGCGGCAGGGAGGTGTTTGGGGTTTGGACAGCTGCTCCCTCCTTTAGGGCTGACTGTCCCATCAGGAGGGGGTTGTTTCTGTTGCTCAGTGGGGAATCTGCAGGCCTCGACAGGCTCTGAGCTGGGAAACAGGAGTGGCCCTGCCTGTCCTATGACACACTGTGAGTGGAGGGGGCTGTGGCCGGCAGGGACGTAGGTGCCAGTCGGATAGTGTTCC” was tested, and the binding signal (log2 relative supershift) was -0.033.
Work on “GATGGACCCTATACGCGGCGCTTGAACTCTGAACCTGGTGGGTTGGTTAAGCCAACAAGGGGAAGGAGTCAGTGGAAGTGGGGTTGGGAAAGGGGGCCTCCATGTGTCTGCACCTGCCTGACACTACCTGCCCCATACCACACCCTCCTGACACTGCCCACCCCTACCCCACCCTCCTGACACTGCCTACCCAATACCCCACCCTCCTGTTGCCAGTCGGATAGTGTTCC” yielded a binding signal (log2 relative supershift) of -0.0988.
Work on “GATGGACCCTATACGCGGCTGGGATTTGGGAATGATGTGTGTGAATTAGAGAGATTTCGAGACCTGAAATAGAGAAAAGCAAGTTAAGACATCAACTGGGGCCCAGAAACAGCACTACAGCGGGGACGACCCACCTCTCAGATGCCTGGTGAGATAAAGAAAGGTCTGGCTGACTCCACTGCCCAGTACTGTGAAGCAGCAGTGAAGACTTGCCAGTCGGATAGTGTTCC” yielded a binding signal (log2 relative supershift) of -0.089.
With “GATGGACCCTATACGCGGCCCCCAGACCAAGGGCCAACAGGCCCCAGCCTGTACCTCTCAGCTGGGTCCCAGTGAACTTGGGCCTCCAAGGGGCCTTCCCCAGGCACCAGGGGAGGGCAGAGGGCAGGGCTGGGCCTGGACTTGCAGGATGCTCAACAGAGTTTGCCCTACCTAATTCCCACACCCCTCCTCTTGTACTCTTTCCCATCTTGCCAGTCGGATAGTGTTCC” the binding signal (log2 relative supershift) was -0.303.
Work on “GATGGACCCTATACGCGGCTGAAATTTTCCAGAGTTGCTCGGGGATGTCACTCGAATGGAACATTTGGGAGACTGCCAAGACCCATTTGTCAGCATGTACAGGCCTGCCCTGAGAGACCACAAATGATGGGAACTCTTGAAAGGTCTAGGGCAGTAGCCTCCAAGATAGGTCACTCCTATTCCCTGGATTCACAGCCAGCAAGAGCAGTATGCCAGTCGGATAGTGTTCC” yielded a binding signal (log2 relative supershift) of -0.108.
For “GATGGACCCTATACGCGGCACACATCAGGAAAGATGGCAAGCAGAACGAGAACTAGTGCTACAAAAAGTGATCTCACTGTAACAGCATGGGTGGGCCTGGAAGTCAGTTCTCATGCAACCCCATTAGTTCTAGAAAGTTCTCATATGACTAAGAAAAAGCTGACAGGAATCAAACAGATTTCATCATTAAGCAAACAGAAAACATCAAGTTGCCAGTCGGATAGTGTTCC”, the binding signal (log2 relative supershift) was -0.331.
“GATGGACCCTATACGCGGCTCTACTTCTTGTTTCTTTCCTTGCTATTTAATACTTAAAGTGTGGTGCCCCACTTGTTTGCCAGGAGCAGTATCACATCAGACTCTGCTGTTAACAAGGTCCCCAGGTGATTCATATGCACATTAAAGTTCATTTTGCACCTCTTTTGGCATTGACTTTACTTTCAGTGGCCTATTTTATGTAATGTAAAATGCCAGTCGGATAGTGTTCC” showed a binding signal (log2 relative supershift) of -0.159.
In the case of “GATGGACCCTATACGCGGCTGAAACAATCCTTACTCAGAGAGTGGATTTGCATCTCTAATAGAGTTCAGGCTCTGTTTGTGAAAGGCTTTTGCTAGGCCTGACCCCATGTCTCAGGAGCACATTGATACCCAGCGCCTTGCCTTTGCCTTGTCCCACACCACAGAGAGCAGTATCATGGGAAAATGCACTAACCTAAAAGAAAGCAAAGGTGCCAGTCGGATAGTGTTCC”, the binding signal (log2 relative supershift) is reported as -0.417.
Sequence “GATGGACCCTATACGCGGCATCAAGGGAAGCAGCCCACTGTGGGCACACTCAGAAAGTATGAGTGAGGGGAGGAGGTGTAGCATGGGGAGAAGAGGCCTGGGGTAGCCCCTGGACAGAAGCCCGCTCCTTTCTGCTCTCTGAGGTGTCCACTGATTCAGCCTGTTGGCCTGGCCAGAACCTGCCCTCTTCATGCCTCGGTTTCCCTGGCTTGCCAGTCGGATAGTGTTCC” has a binding signal (log2 relative supershift) of -0.582.
